Experiment [1] deals with Flag-AKAP-Lbc (expressed in HEK 293 cells) (UniProt Q12802). Put plainly: co-IP.
In experiment [2] the target is T1, GST-AKAP-Lbc fragment 5 (AKAP-Lbc 1923-2366) (UniProt Q12802).
T1 sequence: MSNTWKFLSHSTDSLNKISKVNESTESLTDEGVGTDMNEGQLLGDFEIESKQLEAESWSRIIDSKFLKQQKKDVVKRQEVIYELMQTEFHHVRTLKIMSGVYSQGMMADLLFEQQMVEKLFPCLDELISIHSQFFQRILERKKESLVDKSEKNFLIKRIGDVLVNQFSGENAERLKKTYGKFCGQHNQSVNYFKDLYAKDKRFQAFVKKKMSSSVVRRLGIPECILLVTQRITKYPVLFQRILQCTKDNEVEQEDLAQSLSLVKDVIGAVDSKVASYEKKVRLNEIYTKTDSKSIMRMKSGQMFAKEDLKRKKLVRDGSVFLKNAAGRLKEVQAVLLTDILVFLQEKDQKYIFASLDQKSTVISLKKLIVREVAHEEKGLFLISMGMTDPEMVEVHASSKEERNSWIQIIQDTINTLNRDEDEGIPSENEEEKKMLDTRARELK
The experiment can be described thus: pull-down.

Protein sequences, listed by entry. Tags and fused reporters are not part of them. Lines headed by an entry give the natural chain unless they say otherwise; changes in a name come on top. Chains listed by the source or under a name are the forms on record and can include a tag or linker.
UniProt P14618: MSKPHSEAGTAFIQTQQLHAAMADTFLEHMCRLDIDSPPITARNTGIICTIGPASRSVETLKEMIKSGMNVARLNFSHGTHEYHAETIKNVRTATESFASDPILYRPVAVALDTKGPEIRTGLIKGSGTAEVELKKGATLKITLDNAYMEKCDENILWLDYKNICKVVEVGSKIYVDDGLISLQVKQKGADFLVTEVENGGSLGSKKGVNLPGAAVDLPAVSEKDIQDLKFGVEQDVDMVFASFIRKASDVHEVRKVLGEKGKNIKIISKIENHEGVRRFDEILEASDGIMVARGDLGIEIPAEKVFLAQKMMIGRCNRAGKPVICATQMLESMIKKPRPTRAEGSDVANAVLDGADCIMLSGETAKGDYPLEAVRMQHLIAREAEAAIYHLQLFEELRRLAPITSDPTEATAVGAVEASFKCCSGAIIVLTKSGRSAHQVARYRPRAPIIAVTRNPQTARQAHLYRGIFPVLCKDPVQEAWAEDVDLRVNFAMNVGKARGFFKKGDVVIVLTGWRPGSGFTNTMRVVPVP
VC-PKM1 (P14618-2, form named): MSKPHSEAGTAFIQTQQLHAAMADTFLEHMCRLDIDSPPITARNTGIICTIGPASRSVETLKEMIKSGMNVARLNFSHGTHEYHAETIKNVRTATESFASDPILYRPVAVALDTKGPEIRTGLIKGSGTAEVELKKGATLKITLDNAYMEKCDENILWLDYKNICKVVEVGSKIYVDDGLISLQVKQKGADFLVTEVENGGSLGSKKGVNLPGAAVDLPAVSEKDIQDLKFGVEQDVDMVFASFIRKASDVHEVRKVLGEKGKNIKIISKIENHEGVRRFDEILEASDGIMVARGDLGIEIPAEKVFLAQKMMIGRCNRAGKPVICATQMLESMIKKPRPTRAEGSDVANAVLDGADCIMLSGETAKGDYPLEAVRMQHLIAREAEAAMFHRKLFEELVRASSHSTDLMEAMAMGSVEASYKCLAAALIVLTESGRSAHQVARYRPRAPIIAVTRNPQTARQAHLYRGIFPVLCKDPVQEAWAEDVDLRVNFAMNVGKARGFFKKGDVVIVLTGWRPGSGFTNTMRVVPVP

For experiment [3], the target named is T2, GST-AKAP-Lbc fragment 6 (AKAP-Lbc 2337-2817) (UniProt Q12802).
T2 sequence: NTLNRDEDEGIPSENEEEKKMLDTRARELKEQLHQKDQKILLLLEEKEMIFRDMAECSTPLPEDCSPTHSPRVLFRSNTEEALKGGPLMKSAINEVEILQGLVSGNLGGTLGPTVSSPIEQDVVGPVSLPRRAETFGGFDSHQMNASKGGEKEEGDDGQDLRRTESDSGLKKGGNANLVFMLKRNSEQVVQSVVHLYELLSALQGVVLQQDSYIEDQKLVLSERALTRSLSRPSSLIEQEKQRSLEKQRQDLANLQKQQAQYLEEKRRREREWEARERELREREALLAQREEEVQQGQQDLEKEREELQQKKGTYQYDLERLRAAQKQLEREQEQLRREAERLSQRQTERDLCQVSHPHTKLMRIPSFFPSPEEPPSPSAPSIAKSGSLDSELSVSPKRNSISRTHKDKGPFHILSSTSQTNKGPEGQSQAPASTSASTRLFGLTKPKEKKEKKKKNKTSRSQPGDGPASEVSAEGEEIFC
The experiment can be described thus: pull-down.

The next experiment deals with VN-AKAP-Lbc (UniProt Q12802). Put plainly: split reporter.
Experiment [4] deals with Flag-AKAP-Lbc (expressed in HeLa cells) (UniProt Q12802). The experiment can be described thus: co-IP.
In experiment [5] the target is endogenous AKAP-Lbc (HeLa) (human (endogenous in HeLa)) (UniProt Q12802). Put plainly: co-IP.
For experiment [6], the target named is Flag-AKAP-Lbc (expressed in HEK 293 cells) (UniProt Q12802). The experiment can be described thus: co-IP. This is another data set of the same source.
In another experiment the target is full length HA-PKM2 (UniProt P14618). Put plainly: co-IP.

Read-outs that look alike come from different tables or passages of the source. These are yes or no findings as the source states them, for the method shown. For part of these data: In cells and extracts the contact can be indirect. Some entries that bind do so weakly or less than the wild type. For part of these data: Tags and fused reporters may be left off the sequences shown.

As to “HA-PKM2 1-303 (from UniProt P14618 1-303) (domain or fragment)”, the binding entry in experiment [1] was “no binding”.
The same measure, in the same setting: with “HA-PKM2 1-439 (from UniProt P14618 1-439) (domain or fragment)” the entry was “binds”.
With “His-PKM2 (from UniProt P14618 1-531) (enzyme)”, the binding result in experiment [2] and in experiment [3] was “binds” in each case.
Turning to “VC-PKM1 (from UniProt P14618-2 1-531) (enzyme)”, the binding result in the experiment with VN-AKAP-Lbc is on record as “binds weakly”.
Still for that read-out and setting: to “VC-PKM2 (from UniProt P14618 1-531) (enzyme)” belongs “binds”.
For the molecule “endogenous PKM2 (HeLa) (from UniProt P14618 1-531) (enzyme)”, the binding result in experiment [4] and in experiment [5] was “binds” each time.
As for “full length HA-PKM2 (from UniProt P14618 1-531) (enzyme)”, the binding entry in experiment [1] and in experiment [6] was “binds” each time.

B1: Myc-AKAP-Lbc fragment 5 (domain or fragment, UniProt Q12802-2 1923-2366)
chain: T1 sequence
On to B1, for which the binding entry with full length HA-PKM2 is “binds”.

B2: Myc-AKAP-Lbc fragment 6 (domain or fragment, UniProt Q12802-2 2337-2817)
chain: T2 sequence
With B2, the binding result with full length HA-PKM2 is recorded as “binds”.
